In all, about 400,000 compounds went through this assay and about 13,000 (3.2%) were called active. Inconclusive results, whose numbers are uncertain, are shown with a selection of clear calls. Calls follow the shape of the dose curve; as a rule, active = well fitted cell-killing curve with a large enough effect; inconclusive = small, poorly fitted or top-dose-only effect, or effect the other way; inactive = flat fitted curve, though single readings scatter. Potencies of inconclusive entries are doubtful fits and often do not repeat.
Test: qHTS assay for MDR1-selective chemotherapeutics: Primary screen using the drug-selected MDR subline cells KB-V1; also: nearly all actives have a fitted effect of over 60% in size
Conditions: KB-V1 MDR cells viability, CellTiter-Glo, 72 h; series mostly up to 46.1 µM
How it was run: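 Cells of the MDR subline KB-V1 are plated, dosed with compound at multiple concentrations, and incubated 72 h at 37 degrees C; CellTiter-Glo is then added and luminescence read after 10 min.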
Potency is read from the fitted curve at half-maximal effect.

SMILES | Potency
CC(O)Cn1nc([N+](=O)[O-])nc1N (centres undefined) | inconclusive: 1.46 µM [rising, full curve]
COc1ccc(CCNC(=O)Cn2nc(C)c3c(C)n(-c4ccccc4)nc3c2=O)c(OC)c1 | inactive
CCN(Cc1ccc(Br)s1)C(=O)CSc1nnc(C2CC2)n1C1CC1 | inconclusive: 20.6 µM [cytotoxic, single point]
O=C(CCCSc1ccccc1)Nc1ccc(Cl)c(S(=O)(=O)N2CCOCC2)c1 | active: 2.59 µM
COc1ccccc1CCC(=O)Nc1ccc(S(=O)(=O)Nc2nccs2)cc1 | inactive
CCOC(=O)c1ccc(NC(=O)CSc2ccc(-c3ccccn3)nn2)cc1 | inconclusive: 4.61 µM [cytotoxic, full curve]
CCOc1ccc2[nH]c3c(N4CCc5ccccc5C4)ncnc3c2c1 | active: 11.6 µM
CCN(CC)c1cc(C)c2cc(NC(=O)c3ccccc3Cl)ccc2n1 | inactive
Cc1cc(C(=O)CCC(=O)N2CCN(S(=O)(=O)c3ccccc3)CC2)c(C)s1 | inconclusive: 13 µM [cytotoxic, partial curve]
CCOC(=O)NC(Nc1nc2ccccc2s1)(C(=O)OCC)C(F)(F)F (centres undefined) | inconclusive: 23.1 µM [cytotoxic, partial curve, poor fit]
CNC(=O)CSCc1cnn(-c2ccccc2)c1-n1cccc1 | active: 16.4 µM
COc1ccc(S(=O)(=O)Nc2ccccc2C(=O)NCc2cccnc2)cc1 | inactive
CCn1c(SCC(=O)Nc2ccc(S(N)(=O)=O)cc2)nnc1-c1cccc(OC)c1 | inconclusive: 29.1 µM [rising, single point]
COc1ccc(NC(=O)CC2C(=O)N(C)C(=S)N2CCc2ccccc2)cc1 (centres undefined) | active: 10.3 µM
CCCCCCCC1CC(/C(C)=N/NC(N)=O)OC1=O (centres undefined) | inactive
Cc1onc(-c2ccccc2)c1C(=O)Nc1nnc(CC(C)(C)C)s1 | inconclusive: 11.6 µM [cytotoxic, partial curve, poor fit]
O=S(=O)(Nc1nc(-c2sccc2Cl)cs1)c1cc(Cl)ccc1Cl | inactive
Cc1c(CN2CCN(CC(C)C)C(CCO)C2)[nH]c2ccc(Cl)cc12 (centres undefined) | inactive
COc1ccc(-c2cc(C(=O)Nc3c(C)n(C)n(-c4ccccc4)c3=O)c3ccccc3n2)cc1 | inconclusive: 29.1 µM [cytotoxic, single point]
CC1CN(S(=O)(=O)c2cccc(C(=O)Nc3ccccc3N3CCCCC3)c2)CC(C)O1 (centres undefined) | inconclusive: 11.6 µM [cytotoxic, partial curve]
O=C(NCCc1cccc(Cl)c1)c1cc([N+](=O)[O-])ccc1Cl | inconclusive: 29.1 µM [cytotoxic, single point]
O=C1C(=O)N(C2CCN(S(=O)(=O)c3ccccc3)CC2)CCN1Cc1ccccc1 | inactive
Cc1ccc(C(=O)N/N=C/c2ccc(N3CCOCC3)cc2)c(C)c1 | inactive
CCNS(=O)(=O)c1ccc2nc(NC(=O)/C=C/c3cc(OC)c(OC)c(OC)c3)sc2c1 | inactive
COc1ccccc1CCNC(=O)C(=O)NCC(c1ccco1)S(=O)(=O)c1ccc(F)cc1 (centres undefined) | inactive

SMILES | Potency
COc1ccc(OC)c(CCNC(=O)c2cc3cccc4c3n2CC(C)S4)c1 (centres undefined) | inactive
C[C@H]1CN([C@@H](C)CO)C(=O)CCCn2nncc2CO[C@@H]1CN(C)Cc1ccccc1 | inactive
COc1cc(C(=O)/C=C/c2cccnc2)ccc1O | inconclusive: 20.6 µM [cytotoxic, single point]
C[C@@H]1COC(=O)[C@H](Cc2ccc(F)cc2)C/C=C\C[C@@H](CC(=O)NCCO)C(=O)N1 | inconclusive: 6.51 µM [rising, partial curve]
COCCCN1C(=O)C(CC(=O)NC2CCCCC2)CC(C(=O)N2CCOCC2)=C1C (centres undefined) | inactive
COc1ccc(-c2ccc(CN3C(C(C)C)C(=O)N(Cc4cn(CC5CCCCC5)nn4)CCS3(=O)=O)cc2)cc1 (centres undefined) | inconclusive: 23.1 µM [cytotoxic, single point]
O=C(NCc1ccc2c(c1)CCN2C(=O)c1ccncc1)c1ccccc1Cl | inactive
CCN(CC)S(=O)(=O)c1ccc(-c2cn3ccccc3n2)cc1 | inconclusive: 1.46 µM [rising, partial curve, poor fit]
Cc1ccc(CNC(=O)/C=C/c2ccc(S(=O)(=O)N3CCOCC3)cc2)cc1 | inactive
O=C(N/N=C/c1c[nH]c2ccccc12)C1COc2ccccc2O1 (centres undefined) | active: 2.59 µM
CNC(=O)COC(=O)c1c2c(nc3ccccc13)CCC2 | inconclusive: 25.9 µM [cytotoxic, partial curve, poor fit]
CC(=O)c1cccc(-c2ccnc3c2CC(C(=O)NCc2ccc(F)c(F)c2)O3)c1 (centres undefined) | inconclusive: 20.6 µM [cytotoxic, single point]
CCCn1nc(C(=O)N2CCc3ccccc3C2)c2ccccc2c1=O | inconclusive: 8.2 µM [cytotoxic, partial curve]
O=C(NCCc1csc(-c2ccc(F)cc2)n1)c1ccco1 | inactive
CCOC(=O)N1C(=O)C2(CCCCC2)N(c2ccccc2Cl)C1=S | inactive
Cc1ccc(-c2cc(-c3ccccc3C)[nH]n2)c(O)c1 | active: 13 µM
CCn1c2ccccc2c2cc(NC(=O)C(C)Oc3ccc(OC)cc3)ccc21 (centres undefined) | inconclusive: 3.66 µM [rising, full curve]
CCCCN(C(=O)c1ccc([N+](=O)[O-])o1)c1c(N)n(CCCC)c(=O)[nH]c1=O | inactive
O=C(NC1CC1)C1CCN(C2CCN(C(=O)c3c(F)cccc3Cl)CC2)CC1 | inactive
N#Cc1ccc(-c2nc3ccc(Br)cn3c2Cc2ccccc2)cc1 | inactive
COCCn1c(SCC(=O)Nc2ccc(S(=O)(=O)N3CCOCC3)cc2)nc2ccccc21 | active: 5.17 µM
COc1ccc2c(C)c(CCC(=O)NCc3ccc(C)cc3)c(=O)oc2c1 | inactive
CCOc1ccc(NC(=O)C2CCN(c3nc4ccccc4[nH]3)CC2)cc1 | inconclusive: 4.11 µM [cytotoxic, full curve, poor fit]
COC(=O)/C(=C\c1c(OC)cc(OC)cc1OC)C(=O)c1ccc2c(c1)OCO2 | inactive

Of the compounds above, 3 contain a nitro group on carbon.
SMILES | Potency
CC(O)Cn1nc([N+](=O)[O-])nc1N (centres undefined) | inconclusive: 1.46 µM [rising, full curve]
O=C(NCCc1cccc(Cl)c1)c1cc([N+](=O)[O-])ccc1Cl | inconclusive: 29.1 µM [cytotoxic, single point]
CCCCN(C(=O)c1ccc([N+](=O)[O-])o1)c1c(N)n(CCCC)c(=O)[nH]c1=O | inactive
